Among the data in PMC7934944 are binding values, retold here.

Chains of the proteins cited; added tags and fusions are not shown.
UniProt Q5VT25: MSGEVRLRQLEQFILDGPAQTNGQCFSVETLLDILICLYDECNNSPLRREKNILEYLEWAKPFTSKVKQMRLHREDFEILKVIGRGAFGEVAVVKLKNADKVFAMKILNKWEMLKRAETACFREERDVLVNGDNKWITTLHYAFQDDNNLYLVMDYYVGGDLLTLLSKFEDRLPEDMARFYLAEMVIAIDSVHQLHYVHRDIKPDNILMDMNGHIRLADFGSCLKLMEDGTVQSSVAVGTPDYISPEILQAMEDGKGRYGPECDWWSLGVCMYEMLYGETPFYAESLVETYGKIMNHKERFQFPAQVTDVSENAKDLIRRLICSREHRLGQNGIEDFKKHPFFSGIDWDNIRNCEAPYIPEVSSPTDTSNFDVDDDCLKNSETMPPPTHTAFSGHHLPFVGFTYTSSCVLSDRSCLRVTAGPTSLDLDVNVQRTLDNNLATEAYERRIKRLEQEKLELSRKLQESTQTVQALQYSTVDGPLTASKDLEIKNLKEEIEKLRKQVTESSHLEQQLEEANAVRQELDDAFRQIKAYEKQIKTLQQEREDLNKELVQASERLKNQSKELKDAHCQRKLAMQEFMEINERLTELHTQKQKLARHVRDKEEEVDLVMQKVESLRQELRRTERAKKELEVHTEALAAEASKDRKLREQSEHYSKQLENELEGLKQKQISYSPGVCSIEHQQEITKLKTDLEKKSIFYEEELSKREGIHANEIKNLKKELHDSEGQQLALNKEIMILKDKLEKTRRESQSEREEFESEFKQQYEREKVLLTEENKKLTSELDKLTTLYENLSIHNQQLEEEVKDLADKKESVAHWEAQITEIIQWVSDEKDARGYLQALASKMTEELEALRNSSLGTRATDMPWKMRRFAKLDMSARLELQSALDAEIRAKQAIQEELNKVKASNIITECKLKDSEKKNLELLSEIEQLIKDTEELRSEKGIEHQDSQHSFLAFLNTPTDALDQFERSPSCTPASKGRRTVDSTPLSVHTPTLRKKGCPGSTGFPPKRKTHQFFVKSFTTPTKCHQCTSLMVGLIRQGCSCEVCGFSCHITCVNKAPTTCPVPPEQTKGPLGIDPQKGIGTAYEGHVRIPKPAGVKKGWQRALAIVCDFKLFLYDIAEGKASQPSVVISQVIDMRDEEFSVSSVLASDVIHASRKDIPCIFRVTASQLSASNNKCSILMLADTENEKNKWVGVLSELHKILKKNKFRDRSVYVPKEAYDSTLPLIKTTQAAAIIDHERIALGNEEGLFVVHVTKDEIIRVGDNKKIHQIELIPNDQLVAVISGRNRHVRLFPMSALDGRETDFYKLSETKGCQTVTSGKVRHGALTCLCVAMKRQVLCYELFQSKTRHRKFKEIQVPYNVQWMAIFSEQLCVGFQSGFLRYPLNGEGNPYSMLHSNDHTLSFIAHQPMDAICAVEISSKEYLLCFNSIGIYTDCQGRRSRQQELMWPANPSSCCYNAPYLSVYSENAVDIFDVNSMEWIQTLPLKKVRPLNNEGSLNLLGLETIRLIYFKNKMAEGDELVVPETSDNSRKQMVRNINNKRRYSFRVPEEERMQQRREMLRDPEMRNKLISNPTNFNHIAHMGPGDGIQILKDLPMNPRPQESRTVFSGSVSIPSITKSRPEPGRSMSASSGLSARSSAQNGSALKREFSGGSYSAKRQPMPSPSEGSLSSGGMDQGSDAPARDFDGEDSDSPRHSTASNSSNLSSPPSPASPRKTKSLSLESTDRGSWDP
UniProt P14415: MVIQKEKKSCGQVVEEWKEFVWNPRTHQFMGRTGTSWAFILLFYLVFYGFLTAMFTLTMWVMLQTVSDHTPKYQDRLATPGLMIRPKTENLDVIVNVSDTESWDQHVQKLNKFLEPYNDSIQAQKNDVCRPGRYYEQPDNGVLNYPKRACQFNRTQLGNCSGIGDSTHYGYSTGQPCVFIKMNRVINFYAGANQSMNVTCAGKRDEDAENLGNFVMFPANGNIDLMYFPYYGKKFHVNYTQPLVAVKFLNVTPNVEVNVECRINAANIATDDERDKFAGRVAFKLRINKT

No constants are given. Whether binding was seen depends on the method and setting. Binding seen in cells or lysates may run through a third protein.

The target in the test is myotonic dystrophy kinase–related cdc42-binding kinase α (MRCKα) (human (endogenous in 16HBE14o-)) (UniProt Q5VT25). Kind of test: co-IP; lysate of untransfected 16HBE14o- cells immunoprecipitated with anti-MRCKα antibody (IgG as control), μMACS Protein G Kit, 4°C overnight; blot for the endogenous β isoforms; 5% of lysate as input.

As to “NKA β2 subunit (from UniProt P14415 1-290)”, the binding entry is listed as “no binding”. The value for “NKA β3 subunit (from UniProt P54709 1-279)” was “no binding”.
